Results from PubChem BioAssay (NCATS).
The shares of active, inactive and inconclusive entries below differ from those in the screen. A potency beside an inconclusive call is a rough fit, not a confirmed value. Calls of active or inactive are those of the source. Calls come from the whole dose curve; as a rule, active = well fitted inhibition curve with a large enough effect; inconclusive = small, poorly fitted or top-dose-only effect; inactive = flat fitted curve, though single readings scatter.

By UniProt entry, the sequences of proteins in these tests, tags left out.
UniProt Q14191, whole entry, looked up: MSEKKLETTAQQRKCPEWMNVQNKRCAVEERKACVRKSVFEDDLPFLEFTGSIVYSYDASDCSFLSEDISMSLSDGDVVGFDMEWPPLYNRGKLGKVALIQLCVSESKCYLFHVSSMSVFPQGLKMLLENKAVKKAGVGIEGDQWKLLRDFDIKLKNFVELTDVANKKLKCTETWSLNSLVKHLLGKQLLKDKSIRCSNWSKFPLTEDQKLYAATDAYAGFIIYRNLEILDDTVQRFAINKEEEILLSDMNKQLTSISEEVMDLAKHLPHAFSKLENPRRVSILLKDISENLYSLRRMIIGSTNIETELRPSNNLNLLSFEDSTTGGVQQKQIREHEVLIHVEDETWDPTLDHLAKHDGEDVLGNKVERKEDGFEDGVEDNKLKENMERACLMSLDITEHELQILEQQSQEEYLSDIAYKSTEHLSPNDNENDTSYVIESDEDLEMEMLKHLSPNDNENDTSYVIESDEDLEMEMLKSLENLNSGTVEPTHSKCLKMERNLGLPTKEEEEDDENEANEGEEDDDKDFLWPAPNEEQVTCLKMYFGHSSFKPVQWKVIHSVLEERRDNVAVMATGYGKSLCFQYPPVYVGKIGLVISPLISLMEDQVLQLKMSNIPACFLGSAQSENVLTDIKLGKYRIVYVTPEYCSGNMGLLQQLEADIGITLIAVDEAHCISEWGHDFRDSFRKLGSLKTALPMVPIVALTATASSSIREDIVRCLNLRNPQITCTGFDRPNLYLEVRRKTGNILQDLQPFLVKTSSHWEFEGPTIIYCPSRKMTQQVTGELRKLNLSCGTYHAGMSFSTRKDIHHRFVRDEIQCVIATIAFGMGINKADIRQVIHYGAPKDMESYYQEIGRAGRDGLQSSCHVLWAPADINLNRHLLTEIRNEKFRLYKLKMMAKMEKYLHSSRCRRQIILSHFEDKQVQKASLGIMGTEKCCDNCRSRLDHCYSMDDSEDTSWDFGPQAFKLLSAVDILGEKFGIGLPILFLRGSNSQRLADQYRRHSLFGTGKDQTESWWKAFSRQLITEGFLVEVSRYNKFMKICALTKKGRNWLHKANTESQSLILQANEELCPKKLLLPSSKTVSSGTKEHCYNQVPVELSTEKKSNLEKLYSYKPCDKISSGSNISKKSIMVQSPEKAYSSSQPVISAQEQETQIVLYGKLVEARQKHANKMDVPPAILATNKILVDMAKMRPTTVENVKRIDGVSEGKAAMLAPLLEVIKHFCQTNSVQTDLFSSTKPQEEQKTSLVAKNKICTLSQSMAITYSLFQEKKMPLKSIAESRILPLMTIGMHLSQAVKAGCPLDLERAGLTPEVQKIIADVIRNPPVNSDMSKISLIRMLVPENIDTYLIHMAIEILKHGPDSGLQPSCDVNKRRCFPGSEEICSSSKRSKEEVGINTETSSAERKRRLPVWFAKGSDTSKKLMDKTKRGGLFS

These compounds were tested against Bifunctional 3'-5' exonuclease/ATP-dependent helicase WRN (Homo sapiens) (UniProt Q14191) (assay: qHTS for Inhibitors of WRN Helicase: Confirmatory Assay for Cherry-picked Compounds. (AID 720497; note: nearly all actives have a fitted effect of over 65% in size)). Settings: WRN helicase DNA unwinding, fluorescence kinetic; series mostly up to 57.1 µM.
How it was run: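 Kinetic fluorescence unwinding readout (525/598 nm) of a forked duplex oligonucleotide substrate, 100 nM, with 2 mM ATP and 20 nM WRN. Compounds were added 15 min before substrate at room temperature. Activity was scaled between uninhibited enzyme and buffer-only controls.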
Potency is the fitted concentration of half-maximal effect.

Potency, inactive:
COCCn1c(=O)sc2ccccc2c1=O
Cc1ccc(NC2c3ncccc3C(=O)N2c2ccccc2C)cc1C (stereo not given)
COc1ccc(/C=C2/C(=O)ON=C2C)cc1Cl
Cc1ccc(NC(=O)N/C=C/c2ccco2)cc1
CCn1nc(C(=O)OCC(=O)Nc2ncc(Cl)c(C)c2Cl)c2ccccc2c1=O
Cc1cc(NS(=O)(=O)c2ccc(NC(=O)/C=C/c3ccc(Br)cc3)cc2)no1
Cc1ccc(S(=O)(=O)c2ccc([N+](=O)[O-])cn2)cc1
COc1ccc(NC(=O)CN(C)CC(=O)Nc2ccccc2SC)cc1
COc1cccc(C(c2c(C)[nH]n(-c3ccccc3)c2=O)c2c(C)[nH]n(-c3ccccc3)c2=O)c1OC
Cn1cnc([N+](=O)[O-])c1S(=O)(=O)c1ccc(Cl)cc1
N#Cc1ncc(Cc2ccccc2)nc1C#N
COC1=C(OC)C(=O)C(Sc2ccc3ccccc3c2)=CC1=O

Potency, inconclusive:
O=[N+]([O-])c1cc2c(c3cccnc13)COCO2 21.5 µM [inhibitor, partial curve, poor fit]
Cc1n[nH]c(=S)n(NC(=O)/C=C/C(=O)Nn2c(=S)[nH]nc(C)c2=O)c1=O 19.2 µM [inhibitor, partial curve]
COc1ccccc1OCCSc1nc(-c2ccc(C(C)(C)C)cc2)nc2cc(=O)[nH]n12 27.1 µM [inhibitor, partial curve]
N#C/C(=C/c1ccc(N2CCCCC2)o1)C(=O)Nc1ccc2ccccc2c1 24.1 µM [inhibitor, partial curve]
Cc1nn(-c2ccccc2)c2nc(-c3ccco3)cc(C(=O)O)c12 21.5 µM [inhibitor, partial curve]
COc1ccc(NS(=O)(=O)c2cccc(C(=O)NN=Cc3ccc(O)c(OC)c3)c2)cc1 19.2 µM [inhibitor, partial curve]
Nc1ccc2nc(-c3cccc(-c4nc5ccc(N)cc5[nH]4)c3)[nH]c2c1 15.2 µM [inhibitor, partial curve]
CC1=C(SCc2ccccc2)C(=O)c2ccccc2C1=O 27.1 µM [inhibitor, partial curve]
O=C(Nc1cc(SCC(O)CO)cc([N+](=O)[O-])c1)c1ccc(-n2cnnn2)cc1 (stereo not given) 19.2 µM [inhibitor, partial curve]
CC1(C)OC(=O)C(=Cc2ccc(-c3ccc(S(N)(=O)=O)cc3)o2)C(=O)O1 27.1 µM [inhibitor, partial curve, poor fit]
O=C(Nc1ccc2oc(=O)ccc2c1)c1ccc(-c2cccc([N+](=O)[O-])c2)o1 4.29 µM [inhibitor, full curve]
CCOc1cc(/C=C2\C(=O)ON=C2C)ccc1OCc1ccccc1 19.2 µM [inhibitor, partial curve]
Cc1cc(=O)[nH]c(SCC(=O)NCc2ccco2)n1 19.2 µM [inhibitor, partial curve]
O=C(CCN1C(=O)/C(=C/C=C/c2ccccc2)SC1=S)Nc1cccnc1 24.1 µM [inhibitor, partial curve]
C[C@@H]1NC(=O)N[C@@H]1CCCCCC(=O)O 21.5 µM [inhibitor, partial curve]

Taken from the listing (2 entries):
Potency, inconclusive:
CC1=C(SCc2ccccc2)C(=O)c2ccccc2C1=O 27.1 µM [inhibitor, partial curve]
O=C(Nc1cc(SCC(O)CO)cc([N+](=O)[O-])c1)c1ccc(-n2cnnn2)cc1 (stereo not given) 19.2 µM [inhibitor, partial curve]

Following part:

Potency, active:
CCCN1C(=O)/C(=C/C=C2\N(CC)c3ccccc3C2(C)C)SC1=S 21.5 µM
CCN1/C(=C/c2ccc3cc(C)ccc3[n+]2C)Sc2ccc3sccc3c21 0.341 µM
COCCN(C(=O)COC(=O)c1cc2c(s1)CCC2)c1c(N)n(Cc2ccccc2)c(=O)[nH]c1=O 2.15 µM
C=CCSC1=N/C(=C\C=C\c2ccco2)C(=O)S1 19.2 µM
O=C(CCSCCC(=O)NCc1ccco1)NCc1ccco1 21.5 µM
Nc1c(S(=O)(=O)O)cc(NC(=O)c2ccccc2)c2c1C(=O)c1ccccc1C2=O 12.1 µM
COc1cc(-c2nnc(SCc3cc(=O)oc4cc(O)c(O)cc34)o2)cc(OC)c1OC 2.41 µM
COc1cc(NS(=O)(=O)c2ccc(NC(=S)NC(=O)c3sc4cc(F)ccc4c3Cl)cc2)nc(OC)n1 21.5 µM
